Measured values: publication doi:10.1101/2023.08.04.551985
Results are given in words; binding and its absence hold for the method and conditions named. In cells and extracts the contact can be indirect. Some binding calls cover weakened binding; strength is not graded here.

By UniProt entry, the sequences of proteins in these tests, tags left out.
UniProt E9PZQ0: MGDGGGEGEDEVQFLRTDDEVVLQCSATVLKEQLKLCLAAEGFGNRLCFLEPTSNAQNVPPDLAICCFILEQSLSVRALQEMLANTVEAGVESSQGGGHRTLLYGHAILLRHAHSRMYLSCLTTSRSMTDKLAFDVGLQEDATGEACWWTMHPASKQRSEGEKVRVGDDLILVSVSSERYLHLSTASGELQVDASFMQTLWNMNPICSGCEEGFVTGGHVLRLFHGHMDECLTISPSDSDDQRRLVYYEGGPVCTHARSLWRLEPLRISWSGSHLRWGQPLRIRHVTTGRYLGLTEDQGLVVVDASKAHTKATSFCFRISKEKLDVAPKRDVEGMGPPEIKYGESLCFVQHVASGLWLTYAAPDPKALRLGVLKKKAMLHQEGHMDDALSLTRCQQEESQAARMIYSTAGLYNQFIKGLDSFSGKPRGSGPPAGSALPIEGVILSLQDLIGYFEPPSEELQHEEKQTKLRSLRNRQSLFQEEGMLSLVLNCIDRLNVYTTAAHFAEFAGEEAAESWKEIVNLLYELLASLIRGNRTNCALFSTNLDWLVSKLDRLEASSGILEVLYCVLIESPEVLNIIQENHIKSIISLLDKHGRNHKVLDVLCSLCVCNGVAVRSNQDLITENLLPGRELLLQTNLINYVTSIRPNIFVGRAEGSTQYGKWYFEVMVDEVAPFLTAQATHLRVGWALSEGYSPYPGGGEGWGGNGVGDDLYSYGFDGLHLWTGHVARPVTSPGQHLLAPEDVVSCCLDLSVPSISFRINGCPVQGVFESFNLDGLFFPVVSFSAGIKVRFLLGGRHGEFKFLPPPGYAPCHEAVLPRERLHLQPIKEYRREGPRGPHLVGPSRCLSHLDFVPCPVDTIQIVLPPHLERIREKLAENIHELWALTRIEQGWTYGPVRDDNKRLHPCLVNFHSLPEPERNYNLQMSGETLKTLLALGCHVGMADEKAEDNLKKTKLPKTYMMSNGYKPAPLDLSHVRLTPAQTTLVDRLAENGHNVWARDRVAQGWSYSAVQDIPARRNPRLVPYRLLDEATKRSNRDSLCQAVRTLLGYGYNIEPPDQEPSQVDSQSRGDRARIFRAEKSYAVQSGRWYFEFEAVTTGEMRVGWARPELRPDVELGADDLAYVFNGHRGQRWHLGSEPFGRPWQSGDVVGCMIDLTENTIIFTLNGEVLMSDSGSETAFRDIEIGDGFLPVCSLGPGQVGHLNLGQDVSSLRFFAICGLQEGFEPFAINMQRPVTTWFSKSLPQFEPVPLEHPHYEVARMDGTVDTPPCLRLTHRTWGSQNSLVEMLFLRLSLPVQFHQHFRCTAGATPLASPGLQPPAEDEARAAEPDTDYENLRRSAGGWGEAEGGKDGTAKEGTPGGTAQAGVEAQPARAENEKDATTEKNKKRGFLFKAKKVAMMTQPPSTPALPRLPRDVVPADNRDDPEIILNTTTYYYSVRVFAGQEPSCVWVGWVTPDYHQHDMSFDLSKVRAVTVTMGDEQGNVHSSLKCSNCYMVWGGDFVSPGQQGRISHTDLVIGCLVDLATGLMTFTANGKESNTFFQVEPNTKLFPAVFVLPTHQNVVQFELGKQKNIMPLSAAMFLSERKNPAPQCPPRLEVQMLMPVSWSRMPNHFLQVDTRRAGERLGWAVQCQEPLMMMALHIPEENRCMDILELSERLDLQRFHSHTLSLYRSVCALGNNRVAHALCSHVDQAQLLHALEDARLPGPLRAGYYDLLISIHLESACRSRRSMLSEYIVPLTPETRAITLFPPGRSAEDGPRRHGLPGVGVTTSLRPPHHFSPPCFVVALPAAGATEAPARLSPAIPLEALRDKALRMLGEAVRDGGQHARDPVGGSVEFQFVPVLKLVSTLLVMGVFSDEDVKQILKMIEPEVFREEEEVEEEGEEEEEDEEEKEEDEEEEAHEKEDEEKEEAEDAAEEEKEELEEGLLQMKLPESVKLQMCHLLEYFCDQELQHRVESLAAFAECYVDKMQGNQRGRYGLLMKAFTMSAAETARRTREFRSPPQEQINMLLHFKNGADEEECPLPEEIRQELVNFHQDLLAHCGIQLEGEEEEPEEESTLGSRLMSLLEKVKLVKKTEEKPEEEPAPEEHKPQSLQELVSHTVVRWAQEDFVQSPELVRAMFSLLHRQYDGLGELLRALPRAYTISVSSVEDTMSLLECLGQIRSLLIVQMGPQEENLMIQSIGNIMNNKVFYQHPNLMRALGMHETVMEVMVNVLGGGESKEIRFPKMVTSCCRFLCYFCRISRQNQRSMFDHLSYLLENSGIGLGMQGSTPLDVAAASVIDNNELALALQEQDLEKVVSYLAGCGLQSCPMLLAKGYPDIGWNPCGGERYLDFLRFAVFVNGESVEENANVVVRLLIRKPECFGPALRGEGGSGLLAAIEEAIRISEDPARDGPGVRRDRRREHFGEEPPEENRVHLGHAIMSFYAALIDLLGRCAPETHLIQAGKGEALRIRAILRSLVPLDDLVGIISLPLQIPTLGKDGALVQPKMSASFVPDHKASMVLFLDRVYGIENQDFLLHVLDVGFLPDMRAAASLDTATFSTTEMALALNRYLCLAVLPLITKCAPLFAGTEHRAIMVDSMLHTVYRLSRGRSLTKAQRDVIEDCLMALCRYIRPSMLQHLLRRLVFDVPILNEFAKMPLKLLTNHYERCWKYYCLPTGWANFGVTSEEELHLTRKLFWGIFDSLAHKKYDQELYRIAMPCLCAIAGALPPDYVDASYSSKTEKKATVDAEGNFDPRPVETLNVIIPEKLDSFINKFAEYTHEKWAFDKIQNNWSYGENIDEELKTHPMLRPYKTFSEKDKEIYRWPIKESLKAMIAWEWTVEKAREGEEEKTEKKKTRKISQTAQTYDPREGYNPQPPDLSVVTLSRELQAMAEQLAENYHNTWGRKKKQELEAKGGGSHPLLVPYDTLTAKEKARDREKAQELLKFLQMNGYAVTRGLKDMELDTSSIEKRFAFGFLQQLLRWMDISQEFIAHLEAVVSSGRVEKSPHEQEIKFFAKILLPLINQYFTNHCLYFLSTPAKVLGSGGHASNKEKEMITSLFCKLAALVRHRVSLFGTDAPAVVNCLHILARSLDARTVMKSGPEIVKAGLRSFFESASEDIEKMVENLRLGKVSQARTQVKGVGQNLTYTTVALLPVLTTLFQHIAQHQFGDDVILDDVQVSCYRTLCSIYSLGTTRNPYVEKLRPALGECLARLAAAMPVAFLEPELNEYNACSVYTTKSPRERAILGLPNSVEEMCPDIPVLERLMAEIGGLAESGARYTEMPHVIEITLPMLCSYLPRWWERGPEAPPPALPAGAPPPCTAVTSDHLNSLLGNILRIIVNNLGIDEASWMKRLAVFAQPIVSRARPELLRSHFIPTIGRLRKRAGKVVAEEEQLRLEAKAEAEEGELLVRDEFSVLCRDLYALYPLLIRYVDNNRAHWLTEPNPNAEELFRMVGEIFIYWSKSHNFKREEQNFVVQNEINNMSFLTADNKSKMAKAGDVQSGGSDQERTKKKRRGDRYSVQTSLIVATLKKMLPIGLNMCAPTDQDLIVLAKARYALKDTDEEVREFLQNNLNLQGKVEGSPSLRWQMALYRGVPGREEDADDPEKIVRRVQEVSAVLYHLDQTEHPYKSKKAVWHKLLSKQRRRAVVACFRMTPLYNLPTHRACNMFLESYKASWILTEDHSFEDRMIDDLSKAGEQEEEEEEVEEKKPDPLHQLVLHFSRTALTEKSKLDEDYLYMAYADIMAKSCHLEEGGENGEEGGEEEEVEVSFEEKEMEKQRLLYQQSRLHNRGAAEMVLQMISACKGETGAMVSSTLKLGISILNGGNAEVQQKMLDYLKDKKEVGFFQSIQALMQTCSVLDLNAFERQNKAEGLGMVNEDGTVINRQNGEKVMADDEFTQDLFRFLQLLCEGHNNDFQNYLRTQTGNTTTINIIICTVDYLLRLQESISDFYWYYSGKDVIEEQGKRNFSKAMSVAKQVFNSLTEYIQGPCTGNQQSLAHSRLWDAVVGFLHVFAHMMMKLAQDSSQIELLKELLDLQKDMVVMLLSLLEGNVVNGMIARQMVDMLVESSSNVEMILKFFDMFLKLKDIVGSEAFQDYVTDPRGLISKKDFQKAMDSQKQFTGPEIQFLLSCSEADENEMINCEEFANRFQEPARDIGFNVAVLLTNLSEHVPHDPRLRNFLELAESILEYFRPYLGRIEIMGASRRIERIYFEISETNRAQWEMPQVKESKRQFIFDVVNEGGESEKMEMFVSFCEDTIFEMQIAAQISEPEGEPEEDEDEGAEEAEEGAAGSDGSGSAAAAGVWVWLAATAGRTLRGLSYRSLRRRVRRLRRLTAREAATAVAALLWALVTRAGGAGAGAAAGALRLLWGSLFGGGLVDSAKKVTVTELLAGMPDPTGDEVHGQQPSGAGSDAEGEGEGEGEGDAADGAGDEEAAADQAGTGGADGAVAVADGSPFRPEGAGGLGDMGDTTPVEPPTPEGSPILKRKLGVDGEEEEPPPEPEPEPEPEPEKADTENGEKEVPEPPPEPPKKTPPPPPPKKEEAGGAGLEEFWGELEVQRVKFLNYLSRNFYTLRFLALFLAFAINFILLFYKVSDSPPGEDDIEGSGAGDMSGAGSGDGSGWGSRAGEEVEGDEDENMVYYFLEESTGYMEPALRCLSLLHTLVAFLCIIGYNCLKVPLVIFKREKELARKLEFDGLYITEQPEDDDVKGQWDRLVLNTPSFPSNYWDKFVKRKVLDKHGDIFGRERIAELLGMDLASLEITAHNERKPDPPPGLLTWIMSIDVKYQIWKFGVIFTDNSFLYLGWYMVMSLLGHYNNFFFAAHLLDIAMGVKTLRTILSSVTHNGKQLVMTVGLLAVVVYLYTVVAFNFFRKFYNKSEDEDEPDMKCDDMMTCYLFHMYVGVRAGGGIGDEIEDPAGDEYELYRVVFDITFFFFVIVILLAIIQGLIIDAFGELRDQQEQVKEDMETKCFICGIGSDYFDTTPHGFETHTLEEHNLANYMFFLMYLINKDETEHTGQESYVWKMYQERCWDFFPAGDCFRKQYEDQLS
UniProt P26883: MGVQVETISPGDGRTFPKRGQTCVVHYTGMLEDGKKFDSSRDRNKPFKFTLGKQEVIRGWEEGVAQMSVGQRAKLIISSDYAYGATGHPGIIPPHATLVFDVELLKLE

Target: skeletal muscle ryanodine receptor 1 (mouse (endogenous in gastrocnemius muscle)) (UniProt E9PZQ0)
Test: co-IP

- binding: binds
Substance: calstabin 1 (from UniProt P26883 1-108)
